# Test results published in PubChem BioAssay AID588499 (NMMLSC, 2011).
# About 610 (0.17%) of roughly 360,000 compounds were called active. This list was built around the results that the source calls inconclusive (neither active nor inactive); the mix of calls is not that of the screen. Cut-off read from the data, not from the text of the source: active = inhibition above about 30%; inconclusive = no clear call, values can overlap the other calls; inactive = below that.
# Test system: Botulinum neurotoxin type A light chain protease (Clostridium botulinum A str. ATCC 3502)
# Assay: blockers of BoNT/A LC substrate cleavage – biochemical, flow cytometry, MLPCN library, primary screen (AID 588499); note: plate controls were buffer without enzyme for full effect and enzyme alone for no effect
# Settings: multiplex microsphere protease substrate cleavage, at 10 µM, active compounds read high
row,SMILES,inhibition
1,CCC(=NCCCn1ccnc1)c1c(O)n(-c2ccccc2)c(=O)[nH]c1=O,inconclusive: -36.2%
2,CC(C)(C)OC(=O)N1CCC[C@H]1c1nnc(SCc2cccc(Cl)c2)o1,inconclusive: -6.5%
3,CC1(C)CC(NC(=O)c2cc(S(=O)(=O)N3CCOCC3)c(Cl)cc2Cl)CC(C)(C)N1,inconclusive: 5%
4,COC(OC)C1Nc2ccccc2C(=O)N1c1ccc(F)cc1 (configuration not stated),inconclusive: -251%
5,CCc1ccc(OCC(=O)Nc2ccc(S(=O)(=O)N3CCOCC3)cc2)cc1,inconclusive: -9.4%
6,C=CCNC(=S)NNC(=O)c1cccn(Cc2ccc(Cl)cc2Cl)c1=O,inconclusive: -0.8%
7,Cc1nc2c(C)cccc2c2c1CCN2c1ccccc1F,inconclusive: 2.2%
8,COC(=O)CC1(c2ccc(OC)cc2)C(=O)c2ccccc2C1=O,inconclusive: -4.3%
9,Cc1ccc(N2CCN(/N=C/c3sccc3C)CC2)cc1,inconclusive: 0.8%
10,Cc1nn(Cc2ccc(Cl)c(Cl)c2)c(C)c1NC(=O)c1noc2c1CCCCC2,inconclusive: -6.6%
11,Cc1ccccc1CN1C2=NCCCN2c2ccccc21,inconclusive: -9.4%
12,Cc1ccc2c(c1)C(O)(CC(=O)c1ccc(C)s1)C(=O)N2 (configuration not stated),inactive: 0.1%
13,COc1ccc(NC(=O)c2cc(-c3cccs3)on2)cc1OC,inconclusive: 3.3%
14,COc1ccc(CC(=O)N[C@@H]2c3cc(OC)c(OC)cc3C[C@H]2O)cc1,inactive: -0.5%
15,COc1cccc(N2CC(C(=O)OC(C)C(=O)c3ccccc3)CC2=O)c1 (configuration not stated),inconclusive: -0.5%
16,CCc1nnc(NS(=O)(=O)c2ccc(NC(=O)c3cccc(OC(F)(F)C(F)F)c3)cc2)s1,inconclusive: -6.8%
17,CCOC(=O)C1=C(c2ccccc2)NC(SC)=C(C#N)C1c1ccco1 (configuration not stated),inconclusive: 5.7%
18,CC(C)Oc1ccccc1NC(=O)CSc1nc2ccccc2c(=O)n1C,inconclusive: -1.1%
19,Cc1nc(-c2nnc(SCC(=O)Nc3ccc(Cl)cc3)n2C)cs1,inconclusive: 20.1%

row,SMILES,inhibition
1,COc1ccccc1-n1c(SCC(=O)Nc2ccccc2F)nc2[nH]ncc2c1=O,inconclusive: -0.6%
2,Cc1cc(C)nc(/N=C(\NC(=O)C(C)(C)C)Nc2ccc(F)cc2)n1,inconclusive: 3.1%
3,CCOc1ccccc1C(=O)N(CN1CCCC1=O)c1cccc(Cl)c1,inconclusive: 1%
4,CC1(C)Cc2c(sc(NC(=O)Cc3ccccc3)c2C#N)CO1,inconclusive: -50.5%
5,Cc1onc(-c2ccccc2)c1-c1csc(N/N=C/c2ccccc2Cl)n1,inconclusive: -11.9%
6,O=C(Nc1cccnc1)c1cccc(S(=O)(=O)N2CCOCC2)c1,inconclusive: 4.5%
7,Brc1cccc(Cn2c(-c3cncs3)nc3ccccc32)c1,inconclusive: 0.3%
8,CC1CCCN(S(=O)(=O)c2ccc(NC(=O)CN3C(=O)NC(C)(c4ccccc4)C3=O)cc2)C1 (configuration not stated),inactive: -1.1%
9,COc1ccc(N2CCN(c3oc(COc4ccccc4Cl)nc3C#N)CC2)cc1,inconclusive: 2.4%
10,CN(C)CCCNc1nc2cc(-c3ccn[nH]3)sc2c(=O)n1C,inactive: 0.3%
11,CCn1c(=O)c(=O)[nH]c2cc(C(=O)Nc3ccc(S(=O)(=O)N4CCCC4)cc3)ccc21,inconclusive: 4.2%
12,O=C(NC1CCCC1)c1sc(=S)n2c1[nH]c(=O)c1ccccc12,inactive: -0.8%
13,CCCc1cc(C(=O)N/N=C/c2ccc(CC)s2)c2ccccc2n1,inactive: -1.3%
14,Cc1occc1C(=O)NC(C)C1CCCO1 (configuration not stated),inactive: -0.9%
15,C=CCN1C(=O)/C(=C/c2ccc(-c3ccc(F)cc3)o2)SC1=S,active: 78.6%
16,COc1cc(/C=N/NC(=O)c2cccc(NC(=O)c3ccccc3C)c2)ccc1O,inactive: -6.7%
17,O=C(c1ccc(F)cc1)c1ccc(OCC(=O)N2CCOCC2)cc1,inconclusive: -4.6%
18,Cc1ccnc(SC2CC(=O)N(c3ccc(C(C)C)cc3)C2=O)n1 (configuration not stated),inconclusive: 0.8%
19,Cc1cc(S(=O)(=O)Nc2ccc(C(=O)NCc3ccncc3)cc2)ccc1F,inconclusive: 0.5%

# Of the compounds above, these contain a tert-butyl group:
row,SMILES,inhibition
2,CC(C)(C)OC(=O)N1CCC[C@H]1c1nnc(SCc2cccc(Cl)c2)o1,inconclusive: -6.5%
2,Cc1cc(C)nc(/N=C(\NC(=O)C(C)(C)C)Nc2ccc(F)cc2)n1,inconclusive: 3.1%

# The listing continues:

row,SMILES,inhibition
1,COc1ccc(CNC(=O)C2(C)Cc3c(-c4ccc(C(N)=O)cc4)ccnc3O2)cc1OC (configuration not stated),inactive: 0.3%
2,O=C(Cn1cnc2ccc(Cl)cc2c1=O)NC1CCS(=O)(=O)C1 (configuration not stated),inconclusive: 7.6%
3,COc1ccc(CCN(C)Cc2c(F)cccc2F)cc1OC,inconclusive: -1.4%
4,Clc1ccc(CNCCC2=CCCCC2)cc1,inconclusive: -6.2%
5,COc1cc(OC)c(C2CC(=O)N3CN(c4ccccc4)CSC3=C2C#N)cc1OC (configuration not stated),inconclusive: 0.9%
6,Cc1ccc(C(=O)NC(=S)NCC2CCCO2)cc1[N+](=O)[O-] (configuration not stated),inactive: 0.5%
7,O=C(COc1ccc(-n2cnnn2)cc1)Nc1cc(Cl)cc(Cl)c1,inconclusive: 13.1%
8,CSCCC(NC(=O)c1ccccc1)C(=O)NC1CC1 (configuration not stated),inconclusive: -3.9%
9,O=c1c2ccccc2ncn1-c1ccc(Cl)cc1,inconclusive: 14.6%
10,CCOC(=O)N1CCN(C(=O)c2cccc(NC3=NC4CS(=O)(=O)CC4S3)c2)CC1 (configuration not stated),inconclusive: 1.8%
11,COC(=O)Cc1ccc(NC(=S)N2CCN(c3ccccn3)CC2)cc1,active: 178%
12,Fc1ccc(-c2cc(-c3cccs3)cc(-c3ccccc3)n2)cc1,inconclusive: 1.9%
13,OC[C@@H](O)[C@H](O)C(/C=N/Nc1ccccc1)=N\Nc1ccccc1,inconclusive: 1%
14,CC1=NN2C(=N)/C(=C\c3cc(C)n(-c4cccc(C)c4)c3C)C(=O)N=C2S1,inconclusive: 13.7%
15,O=C(c1cnn2c(C(F)F)cc(C3CC3)nc12)N1CCCC1,inconclusive: 5.4%
16,CC(=O)NC(Cc1ccccc1)C(=O)NC1CCN(C(=O)c2cnccn2)CC1 (configuration not stated),inconclusive: -1.7%
17,O=C(O)c1cc[c]([Hg][Cl])cc1,active: 60.3%
18,Cc1c(NC(=O)c2ccc(=O)oc2)c(=O)n(-c2ccccc2)n1C,inactive: -0.5%
19,C=CCNC(=S)Nc1sc2c(c1C(=O)OCC)CC(C(C)C)OC2 (configuration not stated),inactive: 0.5%
